Source: patent US20220242905A1, “MODIFIED PEPTIDES AND THEIR USE” (UNIVERSITE DE MONTPELLIER, priority 2018, published 2022)
Part of at least one peptide drawing is inferred or uncertain, most often the ends.

Experiments:
Assay type in all cases: cell-based
[1] = test system: Enterococcus faecalis ATCC29121; settings: value in bracket; 24 h at 37° C.
Description: (§1) Minimal inhibitory concentration (MIC) values and minimal bactericidal concentration (MBCs) values for ATC-peptides 1-9 were determined against both Gram-positive (Bacillus subtilis, Staphylococcus aureus, Enterococcus faecalis) and Gram negative (Escherichia coli, Pseudomonas aeruginosa) bacteria as well as a yeast (Candida albicans). Experiments were conducted in triplicate. For B. subtilis, compounds were tested against vegetative cells and spores, which are particularly resistant to the action of antimicrobial agents. MIC and MBCs values are shown Table 12. In addition, haemolytic properties of 1-9 were tested.
(§2) the antimicrobial performances of oligomers antimicrobial activity were determined on three Gram positive strains (Bacillus subtilis ATCC6633, Staphylococcus aureus ATCC6538 and Enterococcus faecalis ATCC29121), two Gram negative strains (Escherichia coli ATCC8739 and Pseudomonas aeruginosa ATCC9027) and one fungal strain (Candida albicans ATCC10231). Each bacterial strain was allowed to grow overnight on Trypto-Caseine-Soja agar (TSA, Difco) at 37° C., C. albicans was allowed to grow 48 h on a sabouraud medium (Difco) at 20-25° C. A fresh suspension at 10^8 CFU·mL^−1 was then prepared by inoculating the micro-organisms in a Tryptone-Sel solution. Concentration was monitored by measuring transmitted light at 620 nm or with the Mac Farland turbidity standard (Mac Farland=0.5≈10^8 CFU·mL^−1). Each suspension was then diluted in a doubly strong Mueller-Hinton (MH, Difco) broth to […]. Two-fold serial dilutions (100 μL) of oligomers in sterile water (pH adjusted between 7.4 and 7.7 with HCl and NaOH solutions) were mixed with microbial inoculum (100 μL) in NUNC sterile clear polystyrene flat-bottom 96-well plates. A 1/1 v/v oligomer solution/water mixture was used a negative control and a 1/1 vv water/microbial inoculum mixture was used a positive control. Plates were then incubated 24 h at 37° C. for bacteria and 48 h at 25° C. for C. albicans. Minimum Inhibitory Concentration (MIC) was determined as the lowest concentration inhibiting the growth of each micro-organism. […] Minimum Bactericidal Concentration (MBC) was determined as the lowest concentration that prevent the growth of more than one colony. Each assay was performed in a triple duplicate for each strain.

[2] = test system: Bacillus subtilis ATCC6633; settings: value in bracket; 24 h at 37° C.
Description: as §1, §2

[3] = test system: Candida albicans ATCC10231; settings: value in bracket; 48 h at 25° C.
Description: as §1, §2

[4] = test system: Staphylococcus aureus ATCC6538; settings: value in bracket; 24 h at 37° C.
Description: as §1, §2

[5] = test system: Escherichia coli ATCC8739; settings: value in bracket; 24 h at 37° C.
Description: as §1, §2

[6] = test system: Pseudomonas aeruginosa ATCC9027; settings: value in bracket; 24 h at 37° C.
Description: as §1, §2

[7] = test system: Gram-positive and Gram negative bacteria as well as a yeast; test: Antimicrobial activity of ATC-peptides, whole panel (comparison in words); settings: scrambled sequence vs 4

## CC(=O)N[C@@H](CCCCN)c1nc(C)sc1C(=O)N[C@@H](C)c1nc(CCCCN)sc1C(=O)N[C@@H](C)c1nc(C)sc1C(N)=O [Oligomer 1]
[1]
  Minimal bactericidal concentration (MBC) E. faecalis ATCC29121: (>150) μM
[2]
  Minimal bactericidal concentration (MBC) B. subtilis ATCC6633: (>150) μM
[3]
  Minimal bactericidal concentration (MBC) C. albicans ATCC10231: (>150) μM
[4]
  Minimal bactericidal concentration (MBC) S. aureus ATCC6538: (>150) μM
[5]
  Minimal bactericidal concentration (MBC) E. coli ATCC8739: (>150) μM
[6]
  Minimal bactericidal concentration (MBC) P. aeruginosa ATCC9027: (>150) μM

## CC(=O)N[C@@H](CCCCN)c1nc(C)sc1C(=O)N[C@@H](C)c1nc(CCCCN)sc1C(=O)N[C@@H](C)c1nc(C)sc1C(=O)N[C@@H](CCCCN)c1nc(C)sc1C(=O)N[C@@H](C)c1nc(CCCCN)sc1C(=O)N[C@@H](C)c1nc(C)sc1C(N)=O [Oligomer 2]
[1]
  Minimal bactericidal concentration (MBC) E. faecalis ATCC29121: (>150) μM
[2]
  Minimal bactericidal concentration (MBC) B. subtilis ATCC6633: (30) μM
[3]
  Minimal bactericidal concentration (MBC) C. albicans ATCC10231: (130) μM
[4]
  Minimal bactericidal concentration (MBC) S. aureus ATCC6538: (>150) μM
[5]
  Minimal bactericidal concentration (MBC) E. coli ATCC8739: (>150) μM
[6]
  Minimal bactericidal concentration (MBC) P. aeruginosa ATCC9027: (>150) μM

## CC(=O)N[C@@H](CCCCN)c1nc(C)sc1C(=O)N[C@@H](C)c1nc(C)sc1C(=O)N[C@@H](C)c1nc(CCCCN)sc1C(=O)N[C@@H](C)c1nc(C)sc1C(=O)N[C@@H](C)c1nc(CCCCN)sc1C(=O)N[C@@H](CCCCN)c1nc(C)sc1C(=O)N[C@@H](C)c1nc(CCCCN)sc1C(=O)N[C@@H](CCCCN)c1nc(C)sc1C(=O)N[C@@H](C)c1nc(C)sc1C(=O)N[C@@H](C)c1nc(C)sc1C(=O)N[C@@H](C)c1nc(CCCCN)sc1C(=O)N[C@@H](CCCCN)c1nc(C)sc1C(N)=O [Oligomer 5]
[7]
  antimicrobial activity compared with amphiphilic counterpart 4: less active
